Measurements as given in paper PMC4507008.
No constants are given. Whether binding was seen depends on the method and setting. Binding seen in cells or lysates may run through a third protein. Some binding calls cover weakened binding; strength is not graded here. Sequences can lack the tags named with a protein.

Assays:
[1] = target: T1, recombinant GST-HDA19 fusion protein (Arabidopsis thaliana) (UniProt O22446); test: pull-down; GST or GST-HDA19 incubated with [35S]Met-labelled translation mixture in bead-binding buffer (50 mM K-phosphate pH 7.6, 450 mM KCl, 10 mM MgCl2, 10% glycerol, 1% Triton X-100, 1% BSA) 1 h at room temperature, then glutathione-Sepharose beads 1 h at 4 °C; SDS-PAGE and fluorography; only the target purified
T1 sequence: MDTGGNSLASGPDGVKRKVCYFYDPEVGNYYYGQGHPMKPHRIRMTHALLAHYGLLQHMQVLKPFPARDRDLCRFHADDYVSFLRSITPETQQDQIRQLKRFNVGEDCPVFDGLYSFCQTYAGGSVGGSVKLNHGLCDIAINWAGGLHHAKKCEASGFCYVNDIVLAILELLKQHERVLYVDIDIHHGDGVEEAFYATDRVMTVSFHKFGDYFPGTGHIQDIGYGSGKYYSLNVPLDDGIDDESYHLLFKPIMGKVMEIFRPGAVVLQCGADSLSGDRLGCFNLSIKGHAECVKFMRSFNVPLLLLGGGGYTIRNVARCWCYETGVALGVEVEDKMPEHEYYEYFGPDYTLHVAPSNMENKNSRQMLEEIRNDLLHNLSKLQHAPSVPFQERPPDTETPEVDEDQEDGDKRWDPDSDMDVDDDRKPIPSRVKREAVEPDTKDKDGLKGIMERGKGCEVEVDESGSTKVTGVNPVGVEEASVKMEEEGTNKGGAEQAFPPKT

[2] = target: T2, HDA19 fused to the C-terminal YFP fragment (Arabidopsis thaliana) (UniProt O22446); test: split reporter; BiFC with N-YFP and C-YFP fusions co-delivered into Arabidopsis protoplasts; confocal microscopy
T2 sequence: T1 sequence

[3] = target: T3, SCL15-sGFP fusion protein (SCL15pro::SCL15-sGFP) (Arabidopsis thaliana) (UniProt O23210); test: co-IP; nuclear protein extracts of roots of 2-week-old SCL15pro::SCL15-sGFP (Compl-6) seedlings, treated with or without ABA; polyclonal anti-GFP antibody on Dynabeads, 30 min at 4 °C; western blot with anti-HDA19 antibodies
T3 sequence: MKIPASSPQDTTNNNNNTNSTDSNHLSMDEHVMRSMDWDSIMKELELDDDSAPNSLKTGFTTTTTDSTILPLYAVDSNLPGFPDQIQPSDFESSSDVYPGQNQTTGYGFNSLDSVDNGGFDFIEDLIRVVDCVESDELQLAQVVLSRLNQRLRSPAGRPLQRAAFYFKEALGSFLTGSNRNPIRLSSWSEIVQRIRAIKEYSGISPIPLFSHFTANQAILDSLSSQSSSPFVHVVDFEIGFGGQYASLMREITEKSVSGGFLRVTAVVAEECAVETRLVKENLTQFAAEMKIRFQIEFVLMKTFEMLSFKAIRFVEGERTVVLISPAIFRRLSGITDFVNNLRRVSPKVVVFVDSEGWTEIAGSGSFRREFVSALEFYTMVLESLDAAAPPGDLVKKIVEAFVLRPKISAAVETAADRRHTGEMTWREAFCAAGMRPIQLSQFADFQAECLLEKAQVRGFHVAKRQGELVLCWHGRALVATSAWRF

B1: [35S]methionine-labelled full-length SCL15 protein (protein, UniProt O23210 1-486)
chain: T3 sequence
modifications: [35S]methionine-labelled
- binding [1]: binds

B2: SCL15 fused to the N-terminal yellow fluorescent protein (YFP) fragment (protein, UniProt O23210 1-486)
chain: T3 sequence
- binding [2]: binds

B3: HDA19, endogenous in Arabidopsis roots (enzyme, UniProt O22446 1-501)
chain: T1 sequence
- binding [3]: binds
